Assay: liver microsome stability assay

## CCCNCC(O)COc1ccccc1C(=O)CCc1ccccc1 (stereo not drawn) [Propafenone]
Human liver microsomes, 60 min incubation
  Remaining (T = 60 min): 0.0%
Human liver microsomes, 0.693/half-life/mg of microsome protein per mL
  CLint(mic): 244.8 µL/min/mg
human, liver microsomes, pH 7.4
  CLint scaled at 0.1 µM: 220 mL/min/kg

Reference: publication PMC9106008, “Design, Synthesis and Biological Evaluation of N-phenylindole Derivatives as Pks13 Inhibitors againstMycobacterium tuberculosis” (Molecules, 2022)
